PubChem BioAssay AID1259254 – NCATS, 2017

Test: 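Genome-wide screen for genes that prevent DNA re-replication in cancer cells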 (primary screen)
System: human HCT116 colorectal cancer cells
Knock-down reagent: single siRNA against human genes
Duration: 3 days
Measured: 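Imaged Hoechst DNA stain sorts each cell into a cycle phase by DNA amount; per plate, G2 fraction set to 0% for non-targeting and 100% for GMNN siRNA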
Scale: G2 robust z-score and G2 cells, % of GMNN control: higher = more G2 cells, more excess DNA replication; raw share of cells in G2: higher = larger share of cells with G2 DNA content
Rule for the call: 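Active siRNAs have a G2 robust z of 5 or more median absolute deviations over the median, which in these data means about 38% or higher of GMNN control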
Here is one part, drawn at random, of about 59,000 deposited reagents. About 1,550 of them (2.6%) were called active. 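G2 share is only a proxy for re-replication; each gene was hit by three separate siRNAs, and active genes were retested.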 The raw values are shown without normalisation. Entries without a mark were called inactive. The numbers tell different reagents against one gene apart. The record does not give: the amount of reagent.

| target gene | reagent | G2 robust z-score | G2 cells, % of GMNN control | raw share of cells in G2 (%) |
| --- | --- | --- | --- | --- |
| SKP1 (S-phase kinase associated protein 1) | 1 | 2.15 | 18.1 | 11.8 |
| SKP1 (S-phase kinase associated protein 1) | 2 | -0.464 | -0.295 | 4.45 |
| SKP1 (S-phase kinase associated protein 1) | 3 | -0.665 | -1.71 | 3.39 |
| RAD52 (RAD52 DNA repair protein) | 1 | 0.239 | 4.65 | 6.58 |
| RAD52 (RAD52 DNA repair protein) | 2 | -0.261 | 1.13 | 5.11 |
| RAD52 (RAD52 DNA repair protein) | 3 | 0.0947 | 3.63 | 5.35 |
| ZSWIM8 (zinc finger SWIM-type containing 8) | 1 | 4.17 | 32.3 | 17.7 |
| ZSWIM8 (zinc finger SWIM-type containing 8) | 2 | 2.41 | 19.9 | 12.4 |
| ZSWIM8 (zinc finger SWIM-type containing 8) | 3 | 1.13 | 10.9 | 7.26 |
| FRG1JP (FSHD region gene 1 family member J, pseudogene) | 1 | -0.598 | -1.24 | 3.14 |
| FRG1JP (FSHD region gene 1 family member J, pseudogene) | 2 | -0.452 | -0.211 | 3.34 |
| FRG1JP (FSHD region gene 1 family member J, pseudogene) | 3 | 0.86 | 9.02 | 6.19 |
| TYR (tyrosinase) | 1 | 4.71 | 36.1 | 20.9 |
| TYR (tyrosinase) | 2 | 0.129 | 3.88 | 5.71 |
| TYR (tyrosinase) | 3 | 1.84 | 15.9 | 9.71 |
| OLFM1 (olfactomedin 1) | 1 | 0.311 | 5.16 | 5.51 |
| OLFM1 (olfactomedin 1) | 2 | -0.65 | -1.61 | 5 |
| OLFM1 (olfactomedin 1) | 3 | -1.22 | -5.61 | 4.27 |
| TBL1Y (transducin beta like 1 Y-linked) | 1 | -0.673 | -1.77 | 3.33 |
| TBL1Y (transducin beta like 1 Y-linked) | 2 | 0.739 | 8.17 | 5.56 |
| TBL1Y (transducin beta like 1 Y-linked) | 3 | 0.239 | 4.65 | 4.4 |
| GALNT3 (polypeptide N-acetylgalactosaminyltransferase 3) | 1 | 0.276 | 4.91 | 7.13 |
| GALNT3 (polypeptide N-acetylgalactosaminyltransferase 3) | 2 | 0.6 | 7.19 | 7.85 |
| GALNT3 (polypeptide N-acetylgalactosaminyltransferase 3) | 3 | -0.669 | -1.74 | 3.04 |
| ADGRG3 (adhesion G protein-coupled receptor G3) | 1 | -1.92 | -10.6 | 2.06 |
| ADGRG3 (adhesion G protein-coupled receptor G3) | 2 | 1.78 | 15.5 | 9.93 |
| ADGRG3 (adhesion G protein-coupled receptor G3) | 3 | -0.807 | -2.71 | 2.44 |
| PRKN (parkin RBR E3 ubiquitin protein ligase) | 1 | -0.0839 | 2.38 | 4.01 |
| PRKN (parkin RBR E3 ubiquitin protein ligase) | 2 | 1.02 | 10.2 | 9.05 |
| PRKN (parkin RBR E3 ubiquitin protein ligase) | 3 | 2.61 | 21.3 | 13.4 |
| BCL6 (BCL6 transcription repressor) | 1 | 0.377 | 5.62 | 5.69 |
| BCL6 (BCL6 transcription repressor) | 2 | -0.459 | -0.262 | 4.72 |
| BCL6 (BCL6 transcription repressor) | 3 | 2.89 | 23.3 | 11.6 |
| CTSL (cathepsin L) | 1 | 0.68 | 7.75 | 6.8 |
| CTSL (cathepsin L) | 2 | -0.139 | 1.99 | 6.25 |
| CTSL (cathepsin L) | 3 | 0.494 | 6.44 | 7.19 |
| ADD1 (adducin 1) | 1 | -1.14 | -5.05 | 3 |
| ADD1 (adducin 1) | 2 | 0.372 | 5.59 | 7.06 |
| ADD1 (adducin 1) | 3 | 1.99 | 16.9 | 10.3 |
| CYB561 (cytochrome b561) | 1 | 2.2 | 18.5 | 10.5 |
| CYB561 (cytochrome b561) | 2 | 1.46 | 13.2 | 9.69 |
| CYB561 (cytochrome b561) | 3 | -0.61 | -1.32 | 4.51 |
| ARMS2 (age-related maculopathy susceptibility 2) | 1 | -0.97 | -3.85 | 2.45 |
| ARMS2 (age-related maculopathy susceptibility 2) | 2 | 1.51 | 13.6 | 9.31 |
| ARMS2 (age-related maculopathy susceptibility 2) | 3 | 1.1 | 10.7 | 9.22 |
| FADD (Fas associated via death domain) | 1 | -0.504 | -0.58 | 4.87 |
| FADD (Fas associated via death domain) | 2 | -0.521 | -0.701 | 3.62 |
| FADD (Fas associated via death domain) | 3 | -0.381 | 0.286 | 3.45 |
| P2RY11 (purinergic receptor P2Y11) | 1 | -0.0219 | 2.81 | 4.16 |
| P2RY11 (purinergic receptor P2Y11) | 2 | -0.767 | -2.43 | 3.77 |
| P2RY11 (purinergic receptor P2Y11) | 3 | -0.096 | 2.29 | 6.07 |
| DENND1C (DENN domain containing 1C) | 1 | 0.75 | 8.24 | 7.87 |
| DENND1C (DENN domain containing 1C) | 2 | -0.671 | -1.75 | 3.54 |
| DENND1C (DENN domain containing 1C) | 3 | 0.764 | 8.34 | 4.66 |
| TPD52 (tumor protein D52) | 1 | -0.31 | 0.785 | 5.48 |
| TPD52 (tumor protein D52) | 2 | 0.225 | 4.55 | 5.7 |
| TPD52 (tumor protein D52) | 3 | 2.24 | 18.7 | 9.97 |
| KRT14 (keratin 14) | 1 | -0.229 | 1.35 | 5.54 |
| KRT14 (keratin 14) | 2 | -0.495 | -0.518 | 5.49 |
| KRT14 (keratin 14) | 3 | -0.113 | 2.17 | 5 |
| HERC6 | 1 | -0.401 | 0.149 | 4.49 |
| HERC6 | 2 | 1.03 | 10.2 | 8.59 |
| HERC6 | 3 | -0.49 | -0.481 | 6.22 |
| C12orf60 (chromosome 12 open reading frame 60) | 1 | 1.74 | 15.2 | 8.93 |
| C12orf60 (chromosome 12 open reading frame 60) | 2 | -0.467 | -0.321 | 2.81 |
| C12orf60 (chromosome 12 open reading frame 60) | 3 | -0.484 | -0.435 | 2.92 |
| IRX2-DT (IRX2 divergent transcript) | 1 | 0.146 | 4 | 4.03 |
| IRX2-DT (IRX2 divergent transcript) | 2 | -0.0817 | 2.39 | 4.46 |
| IRX2-DT (IRX2 divergent transcript) | 3 | -0.837 | -2.92 | 1.98 |

Sorted by “G2 robust z-score” (low to high): 8 of the entries above
| target gene | reagent | G2 robust z-score | G2 cells, % of GMNN control | raw share of cells in G2 (%) |
| --- | --- | --- | --- | --- |
| DENND1C (DENN domain containing 1C) | 2 | -0.671 | -1.75 | 3.54 |
| TPD52 (tumor protein D52) | 1 | -0.31 | 0.785 | 5.48 |
| KRT14 (keratin 14) | 1 | -0.229 | 1.35 | 5.54 |
| P2RY11 (purinergic receptor P2Y11) | 3 | -0.096 | 2.29 | 6.07 |
| TPD52 (tumor protein D52) | 2 | 0.225 | 4.55 | 5.7 |
| DENND1C (DENN domain containing 1C) | 1 | 0.75 | 8.24 | 7.87 |
| DENND1C (DENN domain containing 1C) | 3 | 0.764 | 8.34 | 4.66 |
| TPD52 (tumor protein D52) | 3 | 2.24 | 18.7 | 9.97 |
